Measurements as given in publication PMC5557372 (ChemMedChem, 2017).
Converted amounts (≈) assume the structure as drawn.

System: 22Rv1 prostate cancer cells
Test: MTS cytotoxicity assay, 22Rv1
Details: Homo sapiens, 22Rv1, 72 h, read-out: 22Rv1 IC50

CNC(=O)c1ccc(N2C(=S)N(c3ccc(C#N)c(C(F)(F)F)c3)C(=O)C2(C)C)cc1F [Enzalutamide, enzalutamide, reference compound]
IC50: 29 ± 2.4 µg/mL (≈ 62.4 µM)
